Assay results published in the supplement of paper PMC12819154, “High-throughput peptide-centric local stability assay extends protein–ligand identification to membrane proteins, tissues and bacteria” (Nature Structural & Molecular Biology, 2025).
This is one part of the list. Most values lie at the level of the controls, where differences are scatter.

Chains of the proteins cited; added tags and fusions are not shown. Lines headed by an entry give the natural chain unless they say otherwise; changes in a name come on top.
UniProt Q9CQG1: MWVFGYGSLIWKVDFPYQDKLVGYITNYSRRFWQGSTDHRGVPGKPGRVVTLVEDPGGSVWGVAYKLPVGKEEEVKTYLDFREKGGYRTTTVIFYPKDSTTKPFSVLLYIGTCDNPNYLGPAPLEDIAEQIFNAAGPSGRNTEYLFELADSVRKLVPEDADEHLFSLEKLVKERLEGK
UniProt Q9CT10: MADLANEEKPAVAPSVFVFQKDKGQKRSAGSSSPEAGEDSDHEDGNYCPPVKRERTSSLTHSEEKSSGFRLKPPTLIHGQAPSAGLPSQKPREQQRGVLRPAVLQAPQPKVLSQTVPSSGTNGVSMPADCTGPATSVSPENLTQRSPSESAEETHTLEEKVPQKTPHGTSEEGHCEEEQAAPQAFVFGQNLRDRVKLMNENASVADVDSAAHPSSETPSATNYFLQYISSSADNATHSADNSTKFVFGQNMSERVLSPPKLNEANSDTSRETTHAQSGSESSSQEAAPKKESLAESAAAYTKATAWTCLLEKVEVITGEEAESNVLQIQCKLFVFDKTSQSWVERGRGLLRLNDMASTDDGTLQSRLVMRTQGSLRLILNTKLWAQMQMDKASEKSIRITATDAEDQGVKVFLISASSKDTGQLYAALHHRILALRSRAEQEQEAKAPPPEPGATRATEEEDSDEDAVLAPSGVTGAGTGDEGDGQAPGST
UniProt Q9CXI0: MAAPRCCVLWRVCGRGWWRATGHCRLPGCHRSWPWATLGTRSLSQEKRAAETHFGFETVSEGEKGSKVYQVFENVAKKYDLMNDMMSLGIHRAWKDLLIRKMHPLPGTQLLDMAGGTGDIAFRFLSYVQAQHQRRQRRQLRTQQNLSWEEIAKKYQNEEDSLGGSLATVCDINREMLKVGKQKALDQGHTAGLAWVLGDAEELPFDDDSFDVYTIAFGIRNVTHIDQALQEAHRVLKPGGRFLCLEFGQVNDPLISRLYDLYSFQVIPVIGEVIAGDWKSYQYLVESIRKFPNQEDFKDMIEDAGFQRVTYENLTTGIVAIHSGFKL
UniProt Q9CR86: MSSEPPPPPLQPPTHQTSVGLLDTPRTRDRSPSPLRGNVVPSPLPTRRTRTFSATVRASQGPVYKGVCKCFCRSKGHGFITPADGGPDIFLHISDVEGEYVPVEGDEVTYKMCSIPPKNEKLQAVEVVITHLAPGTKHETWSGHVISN
UniProt Q99KV1: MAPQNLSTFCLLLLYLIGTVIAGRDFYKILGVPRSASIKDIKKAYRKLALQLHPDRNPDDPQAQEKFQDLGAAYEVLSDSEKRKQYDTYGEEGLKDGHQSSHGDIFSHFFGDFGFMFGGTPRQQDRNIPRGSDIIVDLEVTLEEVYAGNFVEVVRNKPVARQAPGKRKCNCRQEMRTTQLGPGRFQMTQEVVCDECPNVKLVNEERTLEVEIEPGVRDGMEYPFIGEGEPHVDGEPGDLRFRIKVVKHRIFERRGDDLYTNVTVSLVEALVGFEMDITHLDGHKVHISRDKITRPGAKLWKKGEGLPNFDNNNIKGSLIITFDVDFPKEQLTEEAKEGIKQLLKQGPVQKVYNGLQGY
UniProt Q9CR63: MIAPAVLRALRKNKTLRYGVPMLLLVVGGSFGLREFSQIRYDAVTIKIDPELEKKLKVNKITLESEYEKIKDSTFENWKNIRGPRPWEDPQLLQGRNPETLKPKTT
UniProt Q9CQT1: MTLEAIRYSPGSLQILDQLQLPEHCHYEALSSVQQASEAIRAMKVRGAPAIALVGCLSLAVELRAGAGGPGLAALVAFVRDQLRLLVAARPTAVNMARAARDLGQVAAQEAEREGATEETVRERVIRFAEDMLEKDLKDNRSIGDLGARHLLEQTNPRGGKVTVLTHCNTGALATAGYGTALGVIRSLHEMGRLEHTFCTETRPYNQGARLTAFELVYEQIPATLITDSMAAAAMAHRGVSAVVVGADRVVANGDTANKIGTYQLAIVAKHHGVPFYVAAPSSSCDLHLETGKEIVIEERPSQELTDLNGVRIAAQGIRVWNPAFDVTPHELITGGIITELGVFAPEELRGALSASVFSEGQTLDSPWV
UniProt Q9CR16, whole entry: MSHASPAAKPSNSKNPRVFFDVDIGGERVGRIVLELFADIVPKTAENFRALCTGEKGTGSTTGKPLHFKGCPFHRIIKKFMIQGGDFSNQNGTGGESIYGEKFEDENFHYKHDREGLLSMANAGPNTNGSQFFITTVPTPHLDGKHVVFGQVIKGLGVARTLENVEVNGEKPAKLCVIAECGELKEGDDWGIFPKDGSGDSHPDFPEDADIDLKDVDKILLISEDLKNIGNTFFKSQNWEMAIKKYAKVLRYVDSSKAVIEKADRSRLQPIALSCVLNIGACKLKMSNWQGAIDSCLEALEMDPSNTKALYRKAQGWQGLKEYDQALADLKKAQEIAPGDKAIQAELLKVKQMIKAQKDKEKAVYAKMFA
UniProt Q99LI8, whole entry: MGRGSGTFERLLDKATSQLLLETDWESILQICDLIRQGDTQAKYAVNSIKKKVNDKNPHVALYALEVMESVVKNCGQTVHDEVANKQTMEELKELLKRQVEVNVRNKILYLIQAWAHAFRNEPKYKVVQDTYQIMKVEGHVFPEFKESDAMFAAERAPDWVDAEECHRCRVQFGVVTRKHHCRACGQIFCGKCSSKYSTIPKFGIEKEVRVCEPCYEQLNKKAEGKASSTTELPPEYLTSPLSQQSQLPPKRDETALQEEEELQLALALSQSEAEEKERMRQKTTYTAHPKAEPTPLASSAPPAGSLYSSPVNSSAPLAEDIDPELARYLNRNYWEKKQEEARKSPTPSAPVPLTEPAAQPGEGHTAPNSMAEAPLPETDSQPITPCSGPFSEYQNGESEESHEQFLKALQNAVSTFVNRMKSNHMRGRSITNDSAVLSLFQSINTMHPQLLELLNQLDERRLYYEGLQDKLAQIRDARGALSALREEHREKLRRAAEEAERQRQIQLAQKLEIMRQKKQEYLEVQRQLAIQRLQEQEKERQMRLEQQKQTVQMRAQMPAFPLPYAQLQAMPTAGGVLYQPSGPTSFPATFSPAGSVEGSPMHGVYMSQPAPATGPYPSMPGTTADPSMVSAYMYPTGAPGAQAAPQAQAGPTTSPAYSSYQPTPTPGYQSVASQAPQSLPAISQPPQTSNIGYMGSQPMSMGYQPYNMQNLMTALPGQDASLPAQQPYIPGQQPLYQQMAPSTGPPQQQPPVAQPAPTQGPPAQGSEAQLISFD
UniProt Q9CRD0: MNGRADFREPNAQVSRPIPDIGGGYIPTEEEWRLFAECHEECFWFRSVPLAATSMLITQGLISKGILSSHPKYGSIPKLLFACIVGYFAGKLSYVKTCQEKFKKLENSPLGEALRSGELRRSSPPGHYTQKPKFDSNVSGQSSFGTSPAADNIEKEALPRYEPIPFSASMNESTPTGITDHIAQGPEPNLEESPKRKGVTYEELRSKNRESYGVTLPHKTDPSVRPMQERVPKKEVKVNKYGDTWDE
UniProt Q9CRB6: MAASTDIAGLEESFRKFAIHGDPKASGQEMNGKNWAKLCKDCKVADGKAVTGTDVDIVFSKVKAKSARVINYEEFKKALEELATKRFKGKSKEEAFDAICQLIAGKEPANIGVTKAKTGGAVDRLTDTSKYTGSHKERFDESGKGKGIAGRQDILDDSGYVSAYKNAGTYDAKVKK
UniProt Q9CR27: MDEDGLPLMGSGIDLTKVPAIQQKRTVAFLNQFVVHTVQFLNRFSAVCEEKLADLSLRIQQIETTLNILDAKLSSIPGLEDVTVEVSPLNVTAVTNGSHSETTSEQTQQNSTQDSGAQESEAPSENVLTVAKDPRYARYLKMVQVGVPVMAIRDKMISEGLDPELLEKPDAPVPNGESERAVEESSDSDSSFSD
UniProt Q9CPT5: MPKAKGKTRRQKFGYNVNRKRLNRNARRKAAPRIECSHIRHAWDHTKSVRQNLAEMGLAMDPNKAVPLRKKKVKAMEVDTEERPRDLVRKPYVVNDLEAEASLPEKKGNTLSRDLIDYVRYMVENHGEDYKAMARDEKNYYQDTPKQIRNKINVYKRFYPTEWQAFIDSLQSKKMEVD
UniProt Q9CRC6: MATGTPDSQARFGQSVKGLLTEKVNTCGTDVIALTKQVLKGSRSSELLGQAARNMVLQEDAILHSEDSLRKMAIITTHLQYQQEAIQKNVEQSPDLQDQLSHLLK
UniProt Q99JH7: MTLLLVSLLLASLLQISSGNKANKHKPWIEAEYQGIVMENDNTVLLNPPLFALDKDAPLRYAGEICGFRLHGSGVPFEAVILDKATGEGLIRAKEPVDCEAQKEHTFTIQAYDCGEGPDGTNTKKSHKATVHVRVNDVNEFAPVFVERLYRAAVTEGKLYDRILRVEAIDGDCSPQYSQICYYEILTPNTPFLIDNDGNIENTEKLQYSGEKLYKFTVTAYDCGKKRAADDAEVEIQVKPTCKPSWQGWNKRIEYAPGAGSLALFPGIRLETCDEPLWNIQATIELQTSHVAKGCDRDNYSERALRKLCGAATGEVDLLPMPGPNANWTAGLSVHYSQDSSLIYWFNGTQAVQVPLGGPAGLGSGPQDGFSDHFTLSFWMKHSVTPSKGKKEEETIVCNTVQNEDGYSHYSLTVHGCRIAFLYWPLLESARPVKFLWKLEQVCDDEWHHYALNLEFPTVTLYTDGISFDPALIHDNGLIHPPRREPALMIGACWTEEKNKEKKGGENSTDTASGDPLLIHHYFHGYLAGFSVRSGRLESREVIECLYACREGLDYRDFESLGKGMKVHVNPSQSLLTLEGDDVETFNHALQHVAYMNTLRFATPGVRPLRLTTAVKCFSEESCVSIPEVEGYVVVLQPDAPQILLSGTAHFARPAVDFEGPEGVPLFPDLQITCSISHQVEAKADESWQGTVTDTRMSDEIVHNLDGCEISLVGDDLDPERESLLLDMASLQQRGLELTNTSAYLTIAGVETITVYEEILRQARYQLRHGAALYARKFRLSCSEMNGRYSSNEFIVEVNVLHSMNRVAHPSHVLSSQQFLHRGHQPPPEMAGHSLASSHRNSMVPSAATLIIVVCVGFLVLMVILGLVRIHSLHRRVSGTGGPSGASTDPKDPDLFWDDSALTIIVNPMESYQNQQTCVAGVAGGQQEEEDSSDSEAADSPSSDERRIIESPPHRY
UniProt Q9CQ69: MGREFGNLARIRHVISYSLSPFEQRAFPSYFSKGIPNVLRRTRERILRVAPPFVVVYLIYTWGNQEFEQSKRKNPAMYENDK
UniProt Q9CR13: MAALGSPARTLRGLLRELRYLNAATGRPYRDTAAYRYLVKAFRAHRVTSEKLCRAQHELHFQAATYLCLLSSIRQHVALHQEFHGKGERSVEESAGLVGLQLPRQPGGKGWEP
UniProt Q9CQY5: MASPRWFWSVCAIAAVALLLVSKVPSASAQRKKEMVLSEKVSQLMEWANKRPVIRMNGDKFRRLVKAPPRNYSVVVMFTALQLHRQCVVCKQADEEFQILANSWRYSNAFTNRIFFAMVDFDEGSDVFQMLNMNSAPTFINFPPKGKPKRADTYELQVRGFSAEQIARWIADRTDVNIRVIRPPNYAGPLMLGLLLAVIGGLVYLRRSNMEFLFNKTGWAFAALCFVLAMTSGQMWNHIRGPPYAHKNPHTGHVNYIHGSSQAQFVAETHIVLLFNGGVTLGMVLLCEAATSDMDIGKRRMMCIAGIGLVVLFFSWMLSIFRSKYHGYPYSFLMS
UniProt Q9CPR7: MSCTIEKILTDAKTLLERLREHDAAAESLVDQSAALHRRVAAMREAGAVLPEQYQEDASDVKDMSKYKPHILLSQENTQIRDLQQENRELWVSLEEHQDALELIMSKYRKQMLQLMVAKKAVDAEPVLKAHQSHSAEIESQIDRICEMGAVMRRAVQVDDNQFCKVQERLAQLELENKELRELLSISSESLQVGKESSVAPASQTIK
UniProt Q99N69: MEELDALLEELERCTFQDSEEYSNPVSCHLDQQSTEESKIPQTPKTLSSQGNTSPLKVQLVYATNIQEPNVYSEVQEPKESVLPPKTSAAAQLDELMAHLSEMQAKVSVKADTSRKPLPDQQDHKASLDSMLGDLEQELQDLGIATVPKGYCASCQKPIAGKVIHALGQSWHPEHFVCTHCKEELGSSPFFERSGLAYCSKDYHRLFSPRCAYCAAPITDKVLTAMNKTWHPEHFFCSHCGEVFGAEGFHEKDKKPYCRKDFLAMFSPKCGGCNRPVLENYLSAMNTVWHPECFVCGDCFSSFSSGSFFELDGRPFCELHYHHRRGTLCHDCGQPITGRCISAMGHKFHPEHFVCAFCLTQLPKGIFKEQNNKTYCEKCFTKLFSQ
UniProt Q99KR3: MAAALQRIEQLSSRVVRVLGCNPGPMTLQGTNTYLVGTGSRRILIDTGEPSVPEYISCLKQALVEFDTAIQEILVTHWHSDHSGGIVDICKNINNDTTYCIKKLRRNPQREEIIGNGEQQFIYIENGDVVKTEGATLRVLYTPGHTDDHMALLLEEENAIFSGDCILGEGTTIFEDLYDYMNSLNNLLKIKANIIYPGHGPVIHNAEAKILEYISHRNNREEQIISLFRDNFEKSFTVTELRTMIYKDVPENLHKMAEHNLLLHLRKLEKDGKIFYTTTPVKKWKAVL
UniProt Q9CR23: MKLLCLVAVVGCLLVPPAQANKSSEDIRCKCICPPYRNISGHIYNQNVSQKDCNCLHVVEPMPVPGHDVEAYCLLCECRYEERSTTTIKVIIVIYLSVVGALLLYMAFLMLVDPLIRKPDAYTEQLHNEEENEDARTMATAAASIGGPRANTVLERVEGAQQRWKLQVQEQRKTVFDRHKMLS

Compound: CN[C@@H]1C[C@H]2O[C@@](C)([C@@H]1OC)n1c3ccccc3c3c4c(c5c6ccccc6n2c5c31)C(=O)NC4 [staurosporine]
Assay: log2 fold change of pooled soluble protein (PISA), ligand vs vehicle (log2 ratio); higher = more thermally stabilized
Conditions: ligand concentration: 20 uM; assay format: PISA pool 52.9/55.5/58.6 C

Target | log2 fold change of pooled soluble protein
UniProt Q9CQG1 | 0.0509
UniProt Q9CT10 | -0.038
UniProt Q9CXI0 | -0.247
UniProt Q9CRB8 | -0.0671
UniProt Q9CR86 | 0.132
UniProt Q99KV1 | 0.0741
UniProt Q9CR63 | 0.102
UniProt Q9CQT1 | -0.0167
UniProt Q99L27 | -0.0377
UniProt Q9CR16 | -0.102
UniProt Q99MD6 | -0.194
UniProt Q9CPT4 | -0.0945
UniProt Q99LI8 | -0.0762
UniProt Q9CRD0 | 0.0189
UniProt Q9CRB6 | 0.073
UniProt Q9CR27 | -0.166
UniProt Q9CPT5 | 0.111
UniProt Q9CRC6 | -0.41
UniProt Q9CXF0 | 0.0356

Quoted from the listing.
Under log2 fold change of pooled soluble protein, UniProt Q9CRB8 has -0.0671
Under log2 fold change of pooled soluble protein, UniProt Q9CRD0 has 0.0189
Under log2 fold change of pooled soluble protein, UniProt Q99LI8 has -0.0762

The listing continues:

Target | log2 fold change of pooled soluble protein
UniProt Q99JH7 | -0.0709
UniProt Q9CQ69 | -0.0748
UniProt Q9CR13 | 0.247
UniProt Q99NH0 | -0.103
UniProt Q9CR62 | 0.0187
UniProt Q9CQY5 | 0.00499
UniProt Q99M51 | -0.0515
UniProt Q9CR57 | -0.0562
UniProt Q9CPR7 | -0.0488
UniProt Q99JZ7 | -0.00175
UniProt Q99N69 | -0.2
UniProt Q99KR3 | -0.0748
UniProt Q9CR23 | -0.192
UniProt Q99L45 | -0.0284
UniProt Q9CQM5 | -0.00994
UniProt Q99PL5 | -0.0494
UniProt Q9CPW4 | -0.0199
UniProt Q99N28 | -0.0216
